Assay results published in patent US7326733B2, “Methods for increasing bone density” (The Forsyth Institute, priority 2003, dated 2008).

Columns and labels:
IκBA = conditions: fluoxetine-treated RANKL-stimulated cells compared to cells without fluoxetine
unstimulated RAW 264.7 = conditions: unstimulated RAW 264.7, fluoxetine
Protocol: RAW 264.7 mouse macrophage/monocytes (TIB-71) were purchased from ATCC (Manassas, Va.). Cells were cultured in DMEM/1.5 g/l sodium bicarbonate (JRH Biosciences, Lenexa, Kans.) plus 10% non-heat-inactivated FBS (Invitrogen Corporation Carlsbad, Calif.). When needed, 5-HT was stripped from the FBS by incubating it twice in 0.25% Dextran-coated charcoal (Sigma-Aldrich, St. Louis, Mo.) for 30 minutes at 45° C. Recombinant mouse soluble RANKL (Immunex Corp., Seattle, Wash.) was added at a concentration of 10 ng/ml. Recombinant murine RANKL is an NH2-terminal fusion of a leucine zipper trimerization domain (Fanslow et al., 1994, Semin. Immunol. 6(5):267-278) with residues 134-316 of murine RANKL. […] Cultures were also exposed to the VMAT inhibitor reserpine and the MAO-B inhibitor pargylline (Sigma-Aldrich, St. Louis, Mo.), at the indicated concentrations for 4 days. Mouse bone marrow cells were obtained from long bones of 2-week old C57B1 mice and cultured for 7 days in αMEM/FBS supplemented with 50 ng/ml RANKL and 50 ng/ml human M-CSF (PeproTech Inc., Rocky Hill, N.J.).

Structure (SMILES): CNCCC(Oc1ccc(C(F)(F)F)cc1)c1ccccc1.Cl (racemic) [fluoxetine, (+/−)—N-methyl-3-phenyl-3-[(α,α,α-trifluoro-p-tolyl)oxy]propylamine hydrochloride]
- levels of the inhibitor IκBA (IκBA): elevated
- proliferation (unstimulated RAW 264.7): unaffected
